Drawing on ChEMBL document CHEMBL4296182, “CO-ADD screening of NIH NCI Diversity Set V”, this text covers Inhibition for 114 molecules.

The other results are listed elsewhere or left out. Measured potencies and affinities stand elsewhere.

By Inhibition is commonly meant the drop in the measured response relative to a control, in per cent.

In the assay the test system is Pseudomonas aeruginosa. To be noted: Concentration 20 uM; ASSAY_TEST Inhibition of Bacterial Growth; detection method Absorption (OD600); MEDIA CAMHB; plate type 384well; NBS; CORNING #3640; time 18 hr.
With `CCC1(CC)C(=O)NC(=S)N=C1N`, the Inhibition came to 23.58%.

As for `N#Cc1n[nH]c2nc[nH]c(=O)c12`, the Inhibition turned out to be 8.85%.

For `Nc1nc(N)c(/C=N/c2ccc(Br)cc2)c(Nc2ccc(Br)cc2)n1`, the Inhibition was determined as 10.52%.

As for `[O-][n+]1nc2ccccc2c2ccccc21`, the Inhibition is -12.86%.

`C=CCOc1ccc(S(C)(=O)=O)cc1`: the Inhibition was 9.23%.

`C(COC1CC2CC1C1C2CC2OC21)OC1CC2CC1C1C2CC2OC21` (centres undefined): the Inhibition came to 24.67%.

`CC(=O)NCCCOc1ccc([N+](=O)[O-])cc1Cl`: the Inhibition was determined as 11.7%.

In the case of `CC1=CC(C)(C(Cl)(Cl)Cl)C(C)=C/C1=N/O` (centres undefined), the Inhibition is 18.35%.

On to `O=C(O)c1ccc(N2CCCCC2)cc1O`, for which the Inhibition stood at 11.6%.

For the molecule `Oc1ccc(-c2nc3ccccc3s2)c(O)c1`, the Inhibition amounted to 3.79%.

On to `c1ccc(-c2cn3ccccc3n2)cc1`, for which the Inhibition is given as 24.11%.

As for `CC(=O)Nc1ccc(S(=O)(=O)N/N=c2/sc3ccccc3n2C)cc1N`, the Inhibition is on record as 23.99%.

Turning to `Sc1nccn1-c1ccccc1Cl`, the Inhibition is listed as -6.55%.

Take `c1ccc2cc(OCCOCCOc3ccc4ccccc4c3)ccc2c1`: the Inhibition worked out at 22.77%.

For the molecule `c1ccc(CSc2nc3c[nH]cnc-3n2)cc1`, the Inhibition is given as 7.8%.

`O=C1c2ccccc2C(=O)N1c1nc[nH]n1`: the Inhibition turned out to be 17.58%.

Take `COC(=O)C1CC(O)C(O)C(O)C1` (centres undefined): the Inhibition was determined as 21.21%.

Consider `O=C(Nc1ccccc1)Nc1ccccn1`, for which the Inhibition is given as 6.85%.

On to `c1ccc(Sc2ncnc3ccccc23)cc1`, for which the Inhibition turned out to be 16.03%.

For the molecule `NC(=O)c1ccc(Cl)c2ccccc12`, the Inhibition worked out at 15.72%.

On to `CCOc1ccc(NC(=O)C2CCCN(C)C2)cc1` (centres undefined), for which the Inhibition is recorded as -1.96%.

Consider `CCOC(=O)C(=O)Cc1nc2ccccc2s1`, for which the Inhibition was determined as 14.64%.

As to `CCC1=[N+]([O-])[N+]([O-])=C(c2ccccc2)/C1=N/O`, the Inhibition is given as -2.3%.

On to `Cc1ccc(C2C=CC(C#N)=CN2Cc2ccccc2)cc1` (centres undefined), for which the Inhibition came out at 24.62%.

Consider `Sc1nc2ccccc2c2ccccc12`, for which the Inhibition was -6.52%.

Take `FC(F)(F)c1cccc(-c2nc3nc(Cl)c(Cl)nc3[nH]2)c1`: the Inhibition worked out at 8.32%.

As for `O=C1C2C3C=CC(O3)C2C(=O)N1Nc1ccccc1` (centres undefined), the Inhibition worked out at 4.25%.

As for `O=C(Nc1cccc(Cl)c1)Nn1cnnc1`, the Inhibition was -3.53%.

For `Cc1c(Cl)cccc1Nc1ncccc1C(=O)OCC(O)CO` (centres undefined) [CLONIXERIL], the Inhibition is recorded as 14.92%.

`CC(C)NC(=O)Nc1cccc(Cl)c1`: the Inhibition worked out at 13.44%.

For the molecule `CC(=O)Oc1c(C)c(OC(C)=O)c2c(c1C(C)=O)OC1CC(=O)C(C(C)=O)=C(O)C21C` (centres undefined), the Inhibition is given as 26.67%.

Consider `Cc1oc2c(c(C)nn2-c2ccccc2)c(=O)c1Cl`, for which the Inhibition stood at 15.68%.

Regarding `CC(=O)Nc1ccc(Cc2nc3c(=O)n(C)c(=O)n(C)c3[nH]2)cc1`, the Inhibition turned out to be 9.43%.

`CCOC(=O)Cc1cc(O)c2cc(C)ccc2n1`: the Inhibition is on record as 10.86%.

For the molecule `Nc1n[nH]c(CO)n1.O=C(O)CO`, the Inhibition is listed as 5.84%.

Turning to `c1ccc2[nH]c(CCCCCc3nc4ccccc4[nH]3)nc2c1`, the Inhibition is on record as -10.64%.

Take `CSc1ccc(NC(=O)Nc2ccccc2C(N)=O)cc1`: the Inhibition turned out to be 13.42%.

As for `Clc1ccc2nc3ccccc3cc2c1`, the Inhibition is listed as 4.5%.

Take `Cc1ccc(S(=O)(=O)N(C)C)cc1[N+](=O)[O-]`: the Inhibition is reported as -3.98%.

In the case of `C=C1CC2(OC1=O)c1ccccc1CCc1ccccc12`, the Inhibition came to 0.65%.

Turning to `Nc1ccc2c(c1)nnn2-c1ccccc1`, the Inhibition is 19.24%.

For `S=C(Nc1ccccc1)c1ccccn1`, the Inhibition came to 13.6%.

Take `N#Cc1nnn(-c2ccc(Cl)cc2)c1N`: the Inhibition came out at 8.41%.

Take `O=C(CC1(O)CCCCC1)OC1CCCC1`: the Inhibition is on record as -31.15%.

For `NC(=O)CCC(C(=O)O)N1C(=O)C2C3CCC(C3)C2C1=O` (centres undefined), the Inhibition is reported as -5.69%.

Turning to `CCOC(=O)c1cc[nH]c1CC(=O)NC`, the Inhibition came out at 1.8%.

Take `O=c1cc(-c2ccccc2)[nH]c2cc(-c3ccco3)nn12`: the Inhibition came to 8.25%.

Consider `CC(C)COc1nc2c(c(=O)n(C)c(=O)n2C)n1C`, for which the Inhibition worked out at 8.19%.

For the molecule `COc1ccc(N/C=C2\C(=O)CCc3c2oc2cc(Cl)c(O)c(Cl)c32)cc1`, the Inhibition is 11.35%.

`O=C(O)c1ccccc1C(=O)Nc1ccccc1[N+](=O)[O-]`: the Inhibition came to 3.23%.

For the molecule `O=C(O)C1OCC2(CO1)COC(C(=O)O)OC2` (centres undefined), the Inhibition amounted to 10.49%.

Take `Cc1cc(N2CCN(C)CC2)n2nc(-c3ccc(Cl)cc3)nc2n1`: the Inhibition stood at 14.82%.

In the case of `CCCNC(=O)c1ccc(Cl)cc1Cl`, the Inhibition was 4.07%.

As to `OCCN1CCSC1=S`, the Inhibition was 19.31%.

For the molecule `NC(CC(=O)Nc1cc(C(F)(F)F)ccc1Cl)=NO`, the Inhibition stood at 4.66%.

In the case of `Cn1c([N+](=O)[O-])cnc1N1CCN(c2nncs2)C1=O`, the Inhibition is 3.62%.

Regarding `CN1N=C(N)c2cn(C3OC(COP(=O)(O)O)C(O)C3O)c3ncnc1c23` (centres undefined), the Inhibition is listed as 8.37%.

On to `CC1=CC(C)(C)Nc2ccc(Cc3ccc4c(c3)C(C)=CC(C)(C)N4)cc21`, for which the Inhibition is on record as -9.63%.

For the molecule `CCN(CC)C(=O)Cn1ccc(NC(C)=O)nc1=O`, the Inhibition turned out to be 6.41%.

Turning to `CN(C)C(=S)/N=c1\ssc(=S)n1Cc1ccco1`, the Inhibition was determined as 5.51%.

With `C#C[C@]1(O)CC[C@H]2[C@@H]3CCC4=Cc5oncc5C[C@]4(C)[C@H]3CC[C@@]21C` [DANAZOL], the Inhibition stood at 20.34%.

For `NC(=O)SCC(=O)Nc1ccccc1C(=O)O`, the Inhibition is 2.58%.

Regarding `COc1cc2c(cc1OC)C(=O)Cc1ccc3c(c1CN(C)CC2)OCO3`, the Inhibition is given as 30.96%.

In the case of `CCn1c2ccccc2nc2cc3c(cc21)c(Cl)c(=O)c1ccccc13`, the Inhibition was determined as 22.92%.

Take `CCOC(=O)c1cnn2c(SC)ncnc12`: the Inhibition amounted to 1.79%.

Consider `CCn1c2ccccc2c2c3ncc4cccn4c3ccc21`, for which the Inhibition came to 2.22%.

With `Cc1c(CCO)c(=O)n2n1CCCC2`, the Inhibition is -24.3%.

With `CCn1c(=O)n(C)c2c(=O)n(C)c(=O)n(C)c21`, the Inhibition is recorded as 17.4%.

Turning to `c1coc(CNc2[nH]cnc3nncc2-3)c1`, the Inhibition turned out to be 11.43%.

As for `CCOC(=O)c1c[nH]nc1O`, the Inhibition was 18.77%.

Regarding `CC(C)C(=O)c1ccc(O)c(O)c1`, the Inhibition is given as -17.05%.

In the case of `CN(CCC#N)c1ccc(/C=C(\C#N)c2cccc(C(F)(F)F)c2)cc1`, the Inhibition amounted to 7.3%.

As to `CC(C1=C(CCN(C)C)Cc2ccccc21)c1ccccn1.O=C(O)/C=C\C(=O)O` (centres undefined) [DIMETHINDENE MALEATE], the Inhibition is on record as 22.05%.

Turning to `Oc1ccccc1-c1nc2c3ccccc3c3ccccc3c2[nH]1`, the Inhibition is given as 22.28%.

As to `NC(=N\c1ccc(N)cc1)/C(N)=N/c1ccc(N)cc1`, the Inhibition is 16.29%.

As for `CCCCn1c(OC(=S)N(CC)CC)cc(C)nc1=S`, the Inhibition is listed as -2.01%.

On to `Cn1cnc([N+](=O)[O-])c1Sc1nc[nH]n1`, for which the Inhibition came to 10.16%.

As to `Nc1cc(Nc2ccc(Br)cc2)nc(N)n1`, the Inhibition is -13.25%.

`Nc1cc(N)nc(CS)n1`: the Inhibition turned out to be 19.05%.

Consider `C=CCNC(S)=NCC`, for which the Inhibition is recorded as 18.41%.

For the molecule `OC1COC(OCc2ccccc2)C(O)C1O` (centres undefined), the Inhibition was 5.53%.

As for `CCSc1ncc(CO)c(N)n1`, the Inhibition was -0.19%.

As for `O=C1C(Br)=Cc2cccc3cccc1c23`, the Inhibition stood at 2.26%.

In the case of `CCOC(=O)C(=O)Cc1cccnn1`, the Inhibition is 18.91%.

Turning to `CNc1ccc(/N=N/c2cc[n+]([O-])cc2C)cc1C`, the Inhibition is on record as 11.82%.

Consider `O=S(=O)(c1ccc2c(c1)CCCN2)N1CCC[C@H]2CCCC[C@@H]21`, for which the Inhibition is on record as 6.71%.

As for `C1COCCN1.O=C(O)C(C=C(Cl)Cl)N1CCOCC1` (centres undefined), the Inhibition amounted to 8.65%.

As for `CCCn1cnc2c(S)nc(N)nc21`, the Inhibition came out at 12.17%.

Take `CC(C)(c1cc(Cl)c(O)c(CN2CCOCC2)c1)c1cc(Cl)c(O)c(CN2CCOCC2)c1`: the Inhibition was 12.85%.

For `Cc1cc(N2CCOCC2)nc(N2CCOCC2)n1`, the Inhibition was found to be 5.3%.

As to `CCOc1ccc(NC(=O)N(O)C2(C#N)CCCCC2)cc1`, the Inhibition turned out to be 21.11%.

Turning to `O=C(Nc1ccc(C2=NCCCN2)cc1)Nc1ccc(C2=NCCCN2)cc1`, the Inhibition worked out at 26.29%.

Take `Nc1nc(N)nc(-c2ccccc2-c2nc(N)nc(N)n2)n1`: the Inhibition came to 1.51%.

As to `O=C1Nc2ccccc2C1(c1ccc(O)cc1)c1ccc(O)cc1` [OXYPHENISATINE], the Inhibition worked out at 16.79%.

With `CCc1oc2ccccc2c1C(=O)c1cc(Br)c(O)c(Br)c1` [BENZBROMARONE], the Inhibition is 1.35%.

Regarding `Oc1ccccc1/N=C/c1c(O)ccc2ccccc12`, the Inhibition was found to be 7.65%.

Regarding `O[C@@H](c1cc(-c2ccc(C(F)(F)F)cc2)nc(C(F)(F)F)c1)[C@H]1CCCCN1`, the Inhibition worked out at 9.48%.

For `CCOC(=O)c1c(N=C(S)NC)sc2c1CCCC2`, the Inhibition was determined as 5.91%.

Take `O=C(c1ccccc1)c1ccccc1C(=O)c1ccccc1`: the Inhibition is 8.27%.

On to `NS(=O)(=O)c1cc2c(cc1Cl)NC(CC1CCCC1)NS2(=O)=O` (centres undefined) [CYCLOPENTHIAZIDE], for which the Inhibition is given as -3.46%.

Turning to `C=C(C)C(=O)Nc1ccc(NC(C)C)cc1`, the Inhibition was found to be 8.99%.

`Cc1cccc(C)c1NC(=O)Nc1ccc(S(N)(=O)=O)cc1`: the Inhibition was determined as 24.19%.

On to `c1ccc(Nc2cccc3c(Nc4ccccc4)cccc23)cc1`, for which the Inhibition is recorded as 21.7%.

Regarding `CC1=NC2=CC=CC3=NC(C(Cl)(Cl)Cl)=NC(=N1)N23`, the Inhibition was found to be 29.35%.

In the case of `CC(=O)O.COc1ccc2nccc(/C=C/c3ccnc4ccc(OC)cc34)c2c1`, the Inhibition is 14.57%.

With `Cc1cc(=O)n2c3c(c4c(cc13)c(CN(C)C)cc(=O)n4C)OC2.Cl`, the Inhibition amounted to 16.74%.

For `CCOC(=O)N1CCN(Cc2c(O)ccc3ccccc23)CC1`, the Inhibition worked out at 17.88%.

For `CN(C)C(=O)OCC1COc2ccccc2O1` (centres undefined), the Inhibition was 10.66%.

Consider `O=C(C(Cl)Cl)N1CC2CCC(CC2)C1`, for which the Inhibition is given as -21.94%.

`O=c1[nH]nc(-c2cc(-c3ccccc3)nc3ccccc23)o1`: the Inhibition is recorded as 5.98%.

Regarding `CN(C)c1ccc(/C=C/c2ccc3ccccc3n2)cc1`, the Inhibition was -0.15%.

Regarding `CC(C)NC(=O)c1ccc(C(C)C)cc1`, the Inhibition is on record as 17.9%.

Regarding `CCCCCC(=O)N1CCCCC1`, the Inhibition worked out at 16.11%.

As to `C[C@@]1(c2ccccc2)O[C@@H]2C[C@H]3[C@@H]4CCC5=CC(=O)C=C[C@]5(C)[C@@]4(F)[C@@H](O)C[C@]3(C)[C@]2(C(=O)CO)O1` [AMCINAFIDE], the Inhibition was 12.73%.
